# Values from PubChem BioAssay AID1671195 (Yale University, 2021).
# Aim: 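Regulators of LDL receptor activity judged by labelled LDL uptake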 (primary screen)
# System: human Huh7 hepatoma cells
# Knock-down reagent: siRNA pool against human genes, 18 nM
# Time to read-out: about 2 to 2.5 days of knockdown, then 8 h LDL uptake
# Challenge: DiI-labelled LDL at 30 µg/ml for 8 h, in lipoprotein-deficient serum medium
# Read-out: 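Fluorescent LDL signal imaged in cells, scaled to the plate median, robust z-score for each replicate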
# Scale: robust z-score: higher = more LDL uptake after knockdown
# Hit rule: 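Active when two or more replicates show a robust z-score above 2 or below -2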
# Shown is an unselected part of about 22,000 deposited reagents. About 1,510 of all reagents (6.9%) were called active. 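Active includes knockdowns raising or lowering LDL uptake; positive z-scores mean more uptake, negative mean less.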 Reagents against one gene are numbered here. Reagent sequences are not shown.
gene,reagent,"robust z-score, replicate 1","robust z-score, replicate 2","robust z-score, replicate 3",Call
SUMF1,1,-0.772,-0.744,-0.604,inactive
LOC388170 (retired record),1,-1.88,-1.64,-1.83,inactive
STX8,1,0.651,1.03,1.11,inactive
AKNAD1,1,0.081,0.0937,0.698,inactive
LOC441372 (retired record),1,-0.963,-0.861,-0.74,inactive
SAMD10,1,-0.812,-0.432,-1.43,inactive
DCTPP1,1,-0.0386,-0.78,0.173,inactive
IFNGR1,1,0.146,-0.626,0.027,inactive
PPFIBP1,1,-1.02,-0.706,-1.25,inactive
RMI1,1,0.118,0.143,0.122,inactive
GLO1,1,1.28,0.985,1.17,inactive
KLHL28,1,-1.23,-1.57,0.0667,inactive
TBC1D30,1,0.891,1.9,0.327,inactive
COL11A1,1,-0.134,-0.0806,-0.642,inactive
GRIN2B,1,-0.787,-0.799,-0.547,inactive
MUC19,1,0.287,0.566,0.34,inactive
COX17,1,-0.758,-1.2,-0.297,inactive
DEFB128,1,-0.534,0.307,-0.554,inactive
PLS3,1,1.32,2.77,1.04,inactive
ARMS2,1,0.159,0.331,1.28,inactive
TREML1,1,-1.13,-0.896,-1.1,inactive
EMILIN1,1,-1.11,-1.2,-1.06,inactive
PLPP5,1,1.16,0.586,0.828,inactive
MPP4,1,-0.373,-0.758,-0.848,inactive
AFF4,1,-0.535,1.79,0.583,inactive
OR13J1,1,-0.697,-0.333,-0.371,inactive
EPS8L2,1,-0.763,-0.406,-0.0385,inactive
FOXM1,1,-1.22,-1.28,-1.17,inactive
IMMP1L,1,-1.57,-1.07,-1.11,inactive
DMAC1,1,-1.16,-1.05,-0.637,inactive
SHB,1,-0.0988,-1.41,-1.27,inactive
ADAM33,1,-1.12,-1.95,-1.43,inactive
THAP1,1,1.83,2.29,2.38,active
FNDC11,1,-0.0529,-1.09,0.462,inactive
SERTM1,1,-0.473,-0.0937,0.0761,inactive
ZBED5,1,0.934,0.782,1.91,inactive
KCNJ13,1,-0.897,-0.84,-0.866,inactive
TDRKH,1,-2.42,0.385,1.08,inactive
APLN,1,1.76,1.53,0.354,inactive
LOC390299 (retired record),1,0.371,0.133,0.248,inactive
TLNRD1,1,-0.891,-0.495,0.00303,inactive
OR51F1,1,-0.665,-0.396,-0.713,inactive
KRT27,1,-0.139,-0.18,-0.174,inactive
CHRM1,1,-0.51,-0.555,-0.495,inactive
PVR,1,-0.221,-0.0485,-0.126,inactive
LOC440844 (retired record),1,-2.84,-0.711,-0.618,inactive
ZNF209P,1,-1.25,-0.902,-0.9,inactive
CD109,1,-1.18,0.505,0.481,inactive
RDX,1,-0.681,0.572,-0.114,inactive
DPH2,1,1.54,-0.49,0.381,inactive
USP4,1,2.26,1.71,2.93,active
ENDOU,1,-1.4,-0.977,-1.19,inactive
EXPH5,1,1.12,1.13,2.76,inactive
CAPG,1,-1.26,-0.408,-1.33,inactive
VSTM4,1,-0.815,-1.26,-0.995,inactive
NMUR1,1,0.647,0.953,1.53,inactive
PCNP,1,0.687,1.82,1.48,inactive
ZDHHC20,1,0.288,0.647,0.646,inactive
CCDC141,1,0.397,0.39,0.925,inactive
CCDC141,2,-1.16,-1.48,-1.51,inactive
ZNF440,1,0.631,0.648,0.213,inactive
MIR1-1HG,1,1.49,0.456,1.27,inactive
LINC02112,1,0.178,0.641,0.687,inactive
TMEM164,1,1.14,1.45,1.22,inactive
DAGLB,1,-0.232,-0.217,0.234,inactive
SLC31A1,1,0.35,0.495,-0.315,inactive
RPL10P17,1,-0.601,-1.09,-0.618,inactive
CCDC106,1,-1.69,-0.617,-2.56,inactive

8 entries from above, set out differently:
{"gene":"ZNF209P","reagent":1,"robust z-score, replicate 1":-1.25,"robust z-score, replicate 2":-0.902,"robust z-score, replicate 3":-0.9,"Call":"inactive"}
{"gene":"CD109","reagent":1,"robust z-score, replicate 1":-1.18,"robust z-score, replicate 2":0.505,"robust z-score, replicate 3":0.481,"Call":"inactive"}
{"gene":"RDX","reagent":1,"robust z-score, replicate 1":-0.681,"robust z-score, replicate 2":0.572,"robust z-score, replicate 3":-0.114,"Call":"inactive"}
{"gene":"DPH2","reagent":1,"robust z-score, replicate 1":1.54,"robust z-score, replicate 2":-0.49,"robust z-score, replicate 3":0.381,"Call":"inactive"}
{"gene":"USP4","reagent":1,"robust z-score, replicate 1":2.26,"robust z-score, replicate 2":1.71,"robust z-score, replicate 3":2.93,"Call":"active"}
{"gene":"ENDOU","reagent":1,"robust z-score, replicate 1":-1.4,"robust z-score, replicate 2":-0.977,"robust z-score, replicate 3":-1.19,"Call":"inactive"}
{"gene":"EXPH5","reagent":1,"robust z-score, replicate 1":1.12,"robust z-score, replicate 2":1.13,"robust z-score, replicate 3":2.76,"Call":"inactive"}
{"gene":"CAPG","reagent":1,"robust z-score, replicate 1":-1.26,"robust z-score, replicate 2":-0.408,"robust z-score, replicate 3":-1.33,"Call":"inactive"}
